Compound in this test: Cc1cc(ccc1-c1ccccc1)C(=O)N1CCCN(CC1)C(=O)CCl [compound 10]
The experiment in a line: probe-labelled cysteine peptide fold change vs DMSO (competition) (log2 fold change); higher = less target engagement (more negative = stronger competition). The conditions noted are these: THP-1, incubation time: 4 h.

Sequences of proteins named here, by UniProt entry; tags and fusion partners are left off. A change or cut given only in a name is not applied to a line headed by its entry.
UniProt Q9UJX5, whole entry, looked up: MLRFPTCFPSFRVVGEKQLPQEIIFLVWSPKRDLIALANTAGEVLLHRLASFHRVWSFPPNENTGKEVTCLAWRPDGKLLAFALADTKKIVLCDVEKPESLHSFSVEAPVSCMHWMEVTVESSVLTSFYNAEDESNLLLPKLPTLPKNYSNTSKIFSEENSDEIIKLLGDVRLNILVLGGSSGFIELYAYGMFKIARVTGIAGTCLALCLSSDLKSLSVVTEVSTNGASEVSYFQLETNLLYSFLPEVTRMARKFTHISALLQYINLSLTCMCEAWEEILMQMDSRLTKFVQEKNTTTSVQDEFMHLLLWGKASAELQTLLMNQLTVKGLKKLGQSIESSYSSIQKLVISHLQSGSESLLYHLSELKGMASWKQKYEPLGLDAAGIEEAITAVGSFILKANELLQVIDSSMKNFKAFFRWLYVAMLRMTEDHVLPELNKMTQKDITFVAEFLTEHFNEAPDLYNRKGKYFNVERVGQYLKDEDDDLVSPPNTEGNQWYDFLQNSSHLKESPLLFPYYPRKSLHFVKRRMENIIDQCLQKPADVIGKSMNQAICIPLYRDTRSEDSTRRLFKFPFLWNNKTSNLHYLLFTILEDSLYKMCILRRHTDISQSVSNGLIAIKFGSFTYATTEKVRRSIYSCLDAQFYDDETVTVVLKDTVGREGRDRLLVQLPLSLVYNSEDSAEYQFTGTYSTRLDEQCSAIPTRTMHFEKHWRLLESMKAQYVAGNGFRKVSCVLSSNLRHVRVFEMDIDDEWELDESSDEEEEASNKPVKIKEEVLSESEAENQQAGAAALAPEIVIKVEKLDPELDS
UniProt P05091: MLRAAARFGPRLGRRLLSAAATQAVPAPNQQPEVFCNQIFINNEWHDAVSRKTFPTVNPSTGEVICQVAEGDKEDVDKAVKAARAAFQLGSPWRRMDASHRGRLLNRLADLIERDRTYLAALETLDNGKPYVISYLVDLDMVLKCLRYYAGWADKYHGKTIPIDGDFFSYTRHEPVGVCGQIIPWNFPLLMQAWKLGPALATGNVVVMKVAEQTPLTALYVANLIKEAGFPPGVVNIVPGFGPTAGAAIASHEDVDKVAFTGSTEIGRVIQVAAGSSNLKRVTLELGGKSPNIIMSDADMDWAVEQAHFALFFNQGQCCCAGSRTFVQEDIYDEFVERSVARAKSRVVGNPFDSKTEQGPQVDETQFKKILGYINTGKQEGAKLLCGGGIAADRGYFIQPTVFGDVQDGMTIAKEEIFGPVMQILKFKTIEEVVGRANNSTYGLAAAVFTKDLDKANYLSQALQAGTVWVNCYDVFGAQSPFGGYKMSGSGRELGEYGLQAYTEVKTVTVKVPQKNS
UniProt O95831, whole entry, looked up: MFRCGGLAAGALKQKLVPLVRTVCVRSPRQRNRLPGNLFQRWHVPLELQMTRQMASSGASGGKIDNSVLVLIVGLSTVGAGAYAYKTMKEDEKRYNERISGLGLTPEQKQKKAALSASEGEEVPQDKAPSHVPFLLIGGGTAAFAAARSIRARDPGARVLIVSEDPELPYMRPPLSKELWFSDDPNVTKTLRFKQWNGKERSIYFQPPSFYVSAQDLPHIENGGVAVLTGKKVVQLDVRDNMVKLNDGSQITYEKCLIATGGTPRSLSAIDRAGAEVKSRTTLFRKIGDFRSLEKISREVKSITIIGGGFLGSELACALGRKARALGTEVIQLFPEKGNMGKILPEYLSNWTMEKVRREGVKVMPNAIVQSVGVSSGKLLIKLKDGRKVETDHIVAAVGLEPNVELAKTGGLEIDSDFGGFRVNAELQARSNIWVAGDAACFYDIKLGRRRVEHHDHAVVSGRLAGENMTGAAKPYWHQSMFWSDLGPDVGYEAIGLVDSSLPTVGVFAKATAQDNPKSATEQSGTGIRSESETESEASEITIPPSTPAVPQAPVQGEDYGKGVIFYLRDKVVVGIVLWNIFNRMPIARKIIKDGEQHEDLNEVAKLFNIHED
UniProt P31751: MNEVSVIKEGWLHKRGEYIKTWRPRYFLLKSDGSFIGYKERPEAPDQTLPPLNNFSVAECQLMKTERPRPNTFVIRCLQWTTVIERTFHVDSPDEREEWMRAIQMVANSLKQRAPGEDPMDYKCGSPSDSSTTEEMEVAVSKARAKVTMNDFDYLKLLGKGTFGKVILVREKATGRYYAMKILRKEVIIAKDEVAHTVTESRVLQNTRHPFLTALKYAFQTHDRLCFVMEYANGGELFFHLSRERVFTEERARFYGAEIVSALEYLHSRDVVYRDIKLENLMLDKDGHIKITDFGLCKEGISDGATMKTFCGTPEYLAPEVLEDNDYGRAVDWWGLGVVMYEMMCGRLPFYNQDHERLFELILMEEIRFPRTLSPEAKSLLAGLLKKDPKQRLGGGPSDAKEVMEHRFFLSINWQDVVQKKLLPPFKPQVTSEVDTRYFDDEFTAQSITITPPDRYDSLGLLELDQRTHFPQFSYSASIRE
UniProt P23526: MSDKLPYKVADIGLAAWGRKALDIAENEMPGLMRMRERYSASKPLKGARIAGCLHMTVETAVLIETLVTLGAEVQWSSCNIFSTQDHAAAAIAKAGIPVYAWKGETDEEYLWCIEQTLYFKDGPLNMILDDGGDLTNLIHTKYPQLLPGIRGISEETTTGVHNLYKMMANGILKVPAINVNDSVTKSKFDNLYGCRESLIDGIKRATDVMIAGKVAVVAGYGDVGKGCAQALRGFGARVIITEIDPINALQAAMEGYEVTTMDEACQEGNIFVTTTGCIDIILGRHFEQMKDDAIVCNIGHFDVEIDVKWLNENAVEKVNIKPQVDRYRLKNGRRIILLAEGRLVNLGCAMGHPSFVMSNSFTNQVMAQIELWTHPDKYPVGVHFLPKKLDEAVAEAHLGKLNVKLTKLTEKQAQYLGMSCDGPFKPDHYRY
UniProt Q96Q83: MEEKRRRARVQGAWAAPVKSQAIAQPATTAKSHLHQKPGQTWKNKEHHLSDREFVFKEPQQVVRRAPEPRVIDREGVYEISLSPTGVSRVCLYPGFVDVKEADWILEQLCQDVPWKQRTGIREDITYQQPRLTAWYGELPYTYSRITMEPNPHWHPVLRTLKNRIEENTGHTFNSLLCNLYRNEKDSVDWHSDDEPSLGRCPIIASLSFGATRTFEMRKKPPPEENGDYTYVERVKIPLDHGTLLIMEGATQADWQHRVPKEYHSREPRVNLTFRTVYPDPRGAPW
UniProt O43865, whole entry, looked up: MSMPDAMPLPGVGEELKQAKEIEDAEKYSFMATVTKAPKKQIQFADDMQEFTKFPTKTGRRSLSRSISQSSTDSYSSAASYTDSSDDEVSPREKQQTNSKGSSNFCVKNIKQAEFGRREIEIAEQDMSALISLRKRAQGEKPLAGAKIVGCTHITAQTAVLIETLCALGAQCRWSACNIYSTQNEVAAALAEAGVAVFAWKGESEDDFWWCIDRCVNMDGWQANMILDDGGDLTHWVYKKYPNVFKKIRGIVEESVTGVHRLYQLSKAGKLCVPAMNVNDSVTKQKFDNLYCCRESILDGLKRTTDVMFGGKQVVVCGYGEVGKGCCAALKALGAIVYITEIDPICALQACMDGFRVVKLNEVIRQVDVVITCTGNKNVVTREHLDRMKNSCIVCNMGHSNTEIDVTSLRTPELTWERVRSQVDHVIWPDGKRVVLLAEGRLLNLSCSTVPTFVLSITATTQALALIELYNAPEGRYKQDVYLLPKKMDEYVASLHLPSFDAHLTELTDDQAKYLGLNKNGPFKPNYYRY
UniProt Q9P2R3: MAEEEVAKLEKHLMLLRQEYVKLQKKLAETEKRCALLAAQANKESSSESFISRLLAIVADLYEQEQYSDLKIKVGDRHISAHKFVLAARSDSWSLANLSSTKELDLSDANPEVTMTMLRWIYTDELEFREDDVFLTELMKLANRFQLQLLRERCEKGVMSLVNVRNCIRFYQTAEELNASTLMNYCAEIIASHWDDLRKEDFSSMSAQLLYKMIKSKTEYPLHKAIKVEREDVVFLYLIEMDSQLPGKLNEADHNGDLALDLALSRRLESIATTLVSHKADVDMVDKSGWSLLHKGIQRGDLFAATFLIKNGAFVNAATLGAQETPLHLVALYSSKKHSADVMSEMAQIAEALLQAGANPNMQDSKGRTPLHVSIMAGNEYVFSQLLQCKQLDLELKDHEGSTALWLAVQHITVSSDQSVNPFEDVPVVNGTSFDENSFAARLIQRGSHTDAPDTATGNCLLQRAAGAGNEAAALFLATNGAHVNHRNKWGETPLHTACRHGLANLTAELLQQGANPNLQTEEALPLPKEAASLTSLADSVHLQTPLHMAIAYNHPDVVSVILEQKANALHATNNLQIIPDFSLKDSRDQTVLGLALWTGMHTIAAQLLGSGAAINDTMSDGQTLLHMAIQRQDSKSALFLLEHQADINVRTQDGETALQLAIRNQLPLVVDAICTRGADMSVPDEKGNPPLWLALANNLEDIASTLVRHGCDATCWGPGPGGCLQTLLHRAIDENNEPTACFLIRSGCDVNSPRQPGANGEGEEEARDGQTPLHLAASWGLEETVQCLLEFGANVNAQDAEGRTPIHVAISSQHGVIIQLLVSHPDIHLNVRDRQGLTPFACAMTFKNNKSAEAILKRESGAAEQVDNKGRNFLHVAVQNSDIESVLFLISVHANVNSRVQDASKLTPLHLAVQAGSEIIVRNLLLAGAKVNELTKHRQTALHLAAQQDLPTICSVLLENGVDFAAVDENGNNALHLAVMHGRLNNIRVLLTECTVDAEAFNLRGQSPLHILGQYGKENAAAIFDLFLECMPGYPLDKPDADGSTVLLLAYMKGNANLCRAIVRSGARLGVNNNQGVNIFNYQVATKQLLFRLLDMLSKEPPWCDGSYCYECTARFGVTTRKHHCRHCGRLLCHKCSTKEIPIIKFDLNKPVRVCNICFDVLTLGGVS
UniProt Q92667: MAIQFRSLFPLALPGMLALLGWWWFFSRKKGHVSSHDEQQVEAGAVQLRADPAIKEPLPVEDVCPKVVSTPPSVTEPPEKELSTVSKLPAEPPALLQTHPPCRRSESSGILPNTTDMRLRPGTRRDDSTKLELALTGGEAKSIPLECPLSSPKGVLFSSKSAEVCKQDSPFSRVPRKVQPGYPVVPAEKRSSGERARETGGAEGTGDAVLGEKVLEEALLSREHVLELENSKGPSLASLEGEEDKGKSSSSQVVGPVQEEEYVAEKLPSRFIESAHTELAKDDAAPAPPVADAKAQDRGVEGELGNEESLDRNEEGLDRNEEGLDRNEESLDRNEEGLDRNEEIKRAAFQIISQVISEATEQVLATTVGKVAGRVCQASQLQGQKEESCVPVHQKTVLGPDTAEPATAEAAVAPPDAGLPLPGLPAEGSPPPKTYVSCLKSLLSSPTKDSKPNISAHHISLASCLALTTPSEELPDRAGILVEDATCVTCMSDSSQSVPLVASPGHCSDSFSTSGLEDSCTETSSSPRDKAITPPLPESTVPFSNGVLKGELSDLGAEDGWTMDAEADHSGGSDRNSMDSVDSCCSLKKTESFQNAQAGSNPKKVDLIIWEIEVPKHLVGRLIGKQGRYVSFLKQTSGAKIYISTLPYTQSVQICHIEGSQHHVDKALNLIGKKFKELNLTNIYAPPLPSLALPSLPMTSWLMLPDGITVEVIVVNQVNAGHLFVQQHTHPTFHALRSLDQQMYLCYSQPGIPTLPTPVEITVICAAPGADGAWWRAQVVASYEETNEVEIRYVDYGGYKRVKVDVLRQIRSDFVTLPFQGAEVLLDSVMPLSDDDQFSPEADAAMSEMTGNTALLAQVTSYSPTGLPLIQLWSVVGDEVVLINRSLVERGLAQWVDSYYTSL
UniProt P04075: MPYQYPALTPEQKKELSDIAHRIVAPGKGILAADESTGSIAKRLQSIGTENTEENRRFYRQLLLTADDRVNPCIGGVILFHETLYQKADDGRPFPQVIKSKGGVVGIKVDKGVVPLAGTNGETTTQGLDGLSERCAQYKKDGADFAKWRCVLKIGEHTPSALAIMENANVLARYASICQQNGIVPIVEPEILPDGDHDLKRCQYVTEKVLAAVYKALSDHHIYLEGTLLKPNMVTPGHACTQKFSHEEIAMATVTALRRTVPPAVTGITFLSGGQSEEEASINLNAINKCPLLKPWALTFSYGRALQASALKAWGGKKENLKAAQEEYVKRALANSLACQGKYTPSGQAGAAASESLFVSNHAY
UniProt Q13686: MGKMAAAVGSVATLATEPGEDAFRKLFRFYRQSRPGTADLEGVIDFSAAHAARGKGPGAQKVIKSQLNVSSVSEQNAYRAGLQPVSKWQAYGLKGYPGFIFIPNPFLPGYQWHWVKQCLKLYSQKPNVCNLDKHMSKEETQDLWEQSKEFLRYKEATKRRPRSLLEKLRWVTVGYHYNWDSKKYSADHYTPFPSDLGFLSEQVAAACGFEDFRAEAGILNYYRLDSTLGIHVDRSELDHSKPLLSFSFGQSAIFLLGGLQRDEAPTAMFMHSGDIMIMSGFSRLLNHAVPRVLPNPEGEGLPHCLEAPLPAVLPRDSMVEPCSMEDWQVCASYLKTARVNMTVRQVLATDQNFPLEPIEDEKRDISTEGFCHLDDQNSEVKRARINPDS

Some of the results follow.
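Further: competitive profiling in live THP-1 cells: cysteine peptides tagged with an iodoacetamide desthiobiotin (IA-DTB) probe, intensity after compound treatment relative to DMSO-treated cells.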

For “ANAPC4_Q9UJX5_553_SMNQAICIPLYR (UniProt Q9UJX5)”, the “probe-labelled cysteine peptide fold change” value runs as follows: (10 µM) 0.0453; (50 µM) -0.0875.

For the target “AMACR_Q9UHK6_293_AEWCQIFDGTDACVTPVLTFEEVVHHDHNK (UniProt Q9UHK6)”, the “probe-labelled cysteine peptide fold change” value runs as follows: (10 µM) 0.166; (50 µM) 0.128.

In the case of “ALDH2_P05091_179_HEPVGVCGQIIPWNFPLLMQAWK (UniProt P05091)”, the “probe-labelled cysteine peptide fold change” value (10 µM) is 0.0924 and the “probe-labelled cysteine peptide fold change” value (50 µM) stood at 0.164.

For the target “AIFM1_O95831_441_SNIWVAGDAACFYDIK (UniProt O95831)”, the “probe-labelled cysteine peptide fold change” value by setting is: (10 µM) -0.00471; (50 µM) 0.203.

For the target “AKT2_P31751_124_CGSPSDSSTTEEMEVAVSK (UniProt P31751)”, the “probe-labelled cysteine peptide fold change” value is, setting by setting: (10 µM) -0.251; (50 µM) -0.373.

For “AHCY_P23526_297_DDAIVCNIGHFDVEIDVK (UniProt P23526)”, the “probe-labelled cysteine peptide fold change” value (10 µM) is 0.172 and the “probe-labelled cysteine peptide fold change” value (50 µM) stood at 0.564.

As to “ALKBH3_Q96Q83_201_CPIIASLSFGATR (UniProt Q96Q83)”, the “probe-labelled cysteine peptide fold change” value by setting is: (10 µM) 0.189; (50 µM) -0.104.

As for “AKAP9_Q99996_2333+2340_DLETQIECLMSDQECVK (UniProt Q99996)”, the “probe-labelled cysteine peptide fold change” value is -0.0118 (10 µM) and 0.338 (50 µM).

With “AHCYL1_O43865_211_GESEDDFWWCIDR (UniProt O43865)”, the “probe-labelled cysteine peptide fold change” value by setting is: (10 µM) 0.307; (50 µM) 0.247.

On to “ANKFY1_Q9P2R3_460_GSHTDAPDTATGNCLLQR (UniProt Q9P2R3)”, for which the “probe-labelled cysteine peptide fold change” value is, setting by setting: (10 µM) -0.104; (50 µM) -0.113.

For “AKAP1_Q92667_389_EESCVPVHQK (UniProt Q92667)”, the “probe-labelled cysteine peptide fold change” value is, setting by setting: (10 µM) -0.155; (50 µM) 0.156.

On to “ALDOA_P04075_73_VNPCIGGVILFHETLYQK (UniProt P04075)”, for which the “probe-labelled cysteine peptide fold change” value reads like this: (10 µM) 0.222; (50 µM) 0.207.

As for “ALKBH1_Q13686_304_VLPNPEGEGLPHCLEAPLPAVLPR (UniProt Q13686)”, the “probe-labelled cysteine peptide fold change” value was -0.152 (10 µM) and 0.16 (50 µM).

Consider “ANKFY1_Q9P2R3_499_WGETPLHTACR (UniProt Q9P2R3)”, for which the “probe-labelled cysteine peptide fold change” value was 0.0766 (10 µM) and 0.0399 (50 µM).
